From article doi:10.1101/2020.04.03.023721
These are yes or no findings as the source states them, for the method shown. In cells and extracts the contact can be indirect. Some results given as binding are weak or reduced against the parent protein; the word gives no strength. Where a sequence is shown, tags or fusion partners need not be part of it.

Chains of the proteins cited; added tags and fusions are not shown.
UniProt P49023: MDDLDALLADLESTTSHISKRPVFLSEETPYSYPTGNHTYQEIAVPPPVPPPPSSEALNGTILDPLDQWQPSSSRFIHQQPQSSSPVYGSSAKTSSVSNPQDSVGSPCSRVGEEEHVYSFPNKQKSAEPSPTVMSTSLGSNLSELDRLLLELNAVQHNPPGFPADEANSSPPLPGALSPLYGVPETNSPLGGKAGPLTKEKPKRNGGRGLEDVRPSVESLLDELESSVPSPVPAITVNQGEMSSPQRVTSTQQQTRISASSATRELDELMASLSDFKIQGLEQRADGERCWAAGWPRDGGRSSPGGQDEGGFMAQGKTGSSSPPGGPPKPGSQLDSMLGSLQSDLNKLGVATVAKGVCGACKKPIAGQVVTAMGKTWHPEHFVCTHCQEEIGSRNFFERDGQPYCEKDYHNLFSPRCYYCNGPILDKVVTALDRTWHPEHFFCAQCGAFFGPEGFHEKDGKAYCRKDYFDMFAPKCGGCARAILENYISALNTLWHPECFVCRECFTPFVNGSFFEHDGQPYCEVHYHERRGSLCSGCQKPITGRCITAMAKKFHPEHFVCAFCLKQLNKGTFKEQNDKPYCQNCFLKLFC

Legend:
Assay in all cases: co-IP
[1] = target: T1, Flag-P2X7 (UniProt Q99572)
T1 sequence: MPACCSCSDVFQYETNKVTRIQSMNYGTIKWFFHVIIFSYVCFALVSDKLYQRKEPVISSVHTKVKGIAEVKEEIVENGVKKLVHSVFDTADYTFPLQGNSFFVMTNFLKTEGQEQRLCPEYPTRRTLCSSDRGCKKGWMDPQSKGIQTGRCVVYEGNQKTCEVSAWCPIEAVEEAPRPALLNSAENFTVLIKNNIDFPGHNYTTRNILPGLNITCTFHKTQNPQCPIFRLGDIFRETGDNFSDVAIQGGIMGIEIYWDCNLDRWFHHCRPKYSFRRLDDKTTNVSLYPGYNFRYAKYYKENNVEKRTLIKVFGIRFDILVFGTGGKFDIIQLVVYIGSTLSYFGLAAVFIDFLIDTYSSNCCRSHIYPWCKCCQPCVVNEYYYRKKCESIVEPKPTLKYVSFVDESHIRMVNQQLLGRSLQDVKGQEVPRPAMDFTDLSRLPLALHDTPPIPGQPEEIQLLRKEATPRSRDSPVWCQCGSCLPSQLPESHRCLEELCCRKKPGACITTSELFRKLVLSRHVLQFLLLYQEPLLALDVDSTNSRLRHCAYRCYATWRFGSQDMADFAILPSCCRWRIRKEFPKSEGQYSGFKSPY

[2] = target: T2, Flag-P2X7(32-595) (UniProt Q99572)
T2 sequence: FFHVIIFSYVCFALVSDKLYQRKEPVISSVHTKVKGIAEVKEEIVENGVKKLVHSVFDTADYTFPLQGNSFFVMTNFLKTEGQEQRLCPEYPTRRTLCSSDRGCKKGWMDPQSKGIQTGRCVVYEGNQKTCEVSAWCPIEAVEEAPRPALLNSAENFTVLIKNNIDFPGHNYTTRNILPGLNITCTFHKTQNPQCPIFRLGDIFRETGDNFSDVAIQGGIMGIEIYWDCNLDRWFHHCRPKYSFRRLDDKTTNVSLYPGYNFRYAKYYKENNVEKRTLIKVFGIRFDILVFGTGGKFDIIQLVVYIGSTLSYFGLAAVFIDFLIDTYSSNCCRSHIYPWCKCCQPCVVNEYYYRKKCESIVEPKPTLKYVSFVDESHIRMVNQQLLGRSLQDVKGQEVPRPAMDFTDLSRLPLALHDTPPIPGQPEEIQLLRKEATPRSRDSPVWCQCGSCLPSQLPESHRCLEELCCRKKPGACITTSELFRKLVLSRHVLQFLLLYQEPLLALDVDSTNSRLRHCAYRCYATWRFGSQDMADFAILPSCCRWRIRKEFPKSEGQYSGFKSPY

[3] = target: T3, Flag-P2X7(34-595) (UniProt Q99572)
T3 sequence: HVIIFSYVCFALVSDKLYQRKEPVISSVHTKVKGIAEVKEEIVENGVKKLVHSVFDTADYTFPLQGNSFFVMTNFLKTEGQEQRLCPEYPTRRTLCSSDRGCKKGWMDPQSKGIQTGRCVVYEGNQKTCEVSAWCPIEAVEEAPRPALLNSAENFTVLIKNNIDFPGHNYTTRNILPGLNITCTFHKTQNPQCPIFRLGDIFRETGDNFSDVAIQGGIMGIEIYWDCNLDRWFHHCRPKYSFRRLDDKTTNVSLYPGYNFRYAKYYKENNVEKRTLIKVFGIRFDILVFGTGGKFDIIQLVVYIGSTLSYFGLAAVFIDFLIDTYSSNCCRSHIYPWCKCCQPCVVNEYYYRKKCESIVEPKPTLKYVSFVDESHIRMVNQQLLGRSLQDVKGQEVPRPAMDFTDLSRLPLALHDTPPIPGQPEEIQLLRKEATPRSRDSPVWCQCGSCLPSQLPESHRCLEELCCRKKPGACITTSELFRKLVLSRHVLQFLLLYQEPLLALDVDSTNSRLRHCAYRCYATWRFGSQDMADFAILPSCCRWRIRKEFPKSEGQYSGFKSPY

[4] = target: T4, Flag-P2X7(35-595) (UniProt Q99572)
T4 sequence: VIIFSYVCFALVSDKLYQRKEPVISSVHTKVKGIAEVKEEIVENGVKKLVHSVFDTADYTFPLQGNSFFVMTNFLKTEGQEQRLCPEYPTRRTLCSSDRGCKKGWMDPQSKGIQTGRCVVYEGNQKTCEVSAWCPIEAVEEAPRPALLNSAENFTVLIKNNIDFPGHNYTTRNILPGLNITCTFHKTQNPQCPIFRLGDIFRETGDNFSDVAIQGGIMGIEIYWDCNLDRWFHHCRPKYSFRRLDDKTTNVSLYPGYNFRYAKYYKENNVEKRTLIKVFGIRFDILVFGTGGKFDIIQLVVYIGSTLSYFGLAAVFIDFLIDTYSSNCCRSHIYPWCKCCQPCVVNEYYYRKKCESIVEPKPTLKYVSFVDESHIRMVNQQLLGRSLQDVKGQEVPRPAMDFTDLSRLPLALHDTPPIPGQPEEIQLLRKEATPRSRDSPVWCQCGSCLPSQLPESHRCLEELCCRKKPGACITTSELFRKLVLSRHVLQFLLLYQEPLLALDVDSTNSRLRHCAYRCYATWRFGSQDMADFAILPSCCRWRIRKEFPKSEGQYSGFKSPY

For HA-Paxillin (from UniProt P49023 1-591), the binding [1] was “binds”, the binding [2] was “no binding” and the binding [3] was “no binding”. For the same substance, the binding [4] was “no binding”.
